Earlier results as cited in patent US9682037B2, “Non-mucoadhesive film dosage forms” (APR APPLIED PHARMA RESEARCH S.A., priority 2006, dated 2017).
Where a name gives a salt, the structure may show the parent alone. Read-outs that look alike come from different tables or passages of the source.

SMILES	Cmax (10 mg tablet once daily for ten days)	Tmax (fasted)	Food decreases/lowers Cmax by (with food)	Tmax (in vivo)
O=C(O)COCCN1CCN(C(c2ccccc2)c2ccc(Cl)cc2)CC1 (stereo not shown) [Cetirizine Hydrochloride]	Cmax = 311 ng/ml when 10 mg tablet	Tmax = 1.0 hr. (fasted) hours	by 23%	–
CN1C(=O)CN=C(c2ccccc2)c2cc(Cl)ccc21 [Diazepam]	–	–	–	Tmax = 30-90 minutes
